The record followed here is paper PMC6134199.

Sequences of proteins named here, by UniProt entry; tags and fusion partners are left off.
UniProt P00579: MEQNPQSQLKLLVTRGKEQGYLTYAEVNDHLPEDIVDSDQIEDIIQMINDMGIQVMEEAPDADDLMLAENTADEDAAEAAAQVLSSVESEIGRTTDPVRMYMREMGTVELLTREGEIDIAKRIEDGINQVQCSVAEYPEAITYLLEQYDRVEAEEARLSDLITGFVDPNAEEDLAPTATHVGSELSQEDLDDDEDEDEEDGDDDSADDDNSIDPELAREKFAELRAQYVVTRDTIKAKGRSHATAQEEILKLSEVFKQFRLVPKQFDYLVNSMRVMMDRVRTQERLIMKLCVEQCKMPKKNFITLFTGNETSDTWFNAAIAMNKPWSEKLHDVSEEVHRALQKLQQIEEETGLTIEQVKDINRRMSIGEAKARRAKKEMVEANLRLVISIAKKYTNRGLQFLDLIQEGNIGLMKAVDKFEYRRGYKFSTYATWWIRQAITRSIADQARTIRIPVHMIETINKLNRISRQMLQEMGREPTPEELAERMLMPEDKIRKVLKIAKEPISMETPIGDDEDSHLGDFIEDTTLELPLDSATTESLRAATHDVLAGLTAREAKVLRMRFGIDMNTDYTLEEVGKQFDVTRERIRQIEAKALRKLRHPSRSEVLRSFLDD

No constants are given. Whether binding was seen depends on the method and setting. In cells and extracts the contact can be indirect. Some binding calls cover weakened binding; strength is not graded here.

For this test, the target named is His-tagged RpoD sigma factor (E. coli K-12) (UniProt P00579). As to the kind of experiment: pull-down; His-tagged RpoD expressed in wild-type and arcA, mcbR, rcdA, sdiA or slyA deletion strains; lysate (50 mM Tris-HCl pH 8.0, 150 mM NaCl, 10% glycerol) applied to Ni-NTA agarose, washed, eluted with 200 mM imidazole; Rsd in the eluate detected by immunoblot with anti-Rsd antiserum. A general note: A western blot detects proteins with antibodies after separation by electrophoresis.

B1: anti-sigma factor Rsd (regulator of sigma D) (protein, UniProt P0AFX4 1-158)
chain: MLNQLDNLTERVRGSNKLVDRWLHVRKHLLVAYYNLVGIKPGKESYMRLNEKALDDFCQSLVDYLSAGHFSIYERILHKLEGNGQLARAAKIWPQLEANTQQIMDYYDSSLETAIDHDNYLEFQQVLSDIGEALEARFVLEDKLILLVLDAARVKHPA
Regarding B1, the binding result is “binds”.
